Data published in publication PMC8725472.
These are yes or no findings as the source states them, for the method shown. In cells and extracts the contact can be indirect. Some results given as binding are weak or reduced against the parent protein; the word gives no strength.

Sequences of proteins named here, by UniProt entry; tags and fusion partners are left off. Residues count along the entry.
UniProt P37173, residues 23-567: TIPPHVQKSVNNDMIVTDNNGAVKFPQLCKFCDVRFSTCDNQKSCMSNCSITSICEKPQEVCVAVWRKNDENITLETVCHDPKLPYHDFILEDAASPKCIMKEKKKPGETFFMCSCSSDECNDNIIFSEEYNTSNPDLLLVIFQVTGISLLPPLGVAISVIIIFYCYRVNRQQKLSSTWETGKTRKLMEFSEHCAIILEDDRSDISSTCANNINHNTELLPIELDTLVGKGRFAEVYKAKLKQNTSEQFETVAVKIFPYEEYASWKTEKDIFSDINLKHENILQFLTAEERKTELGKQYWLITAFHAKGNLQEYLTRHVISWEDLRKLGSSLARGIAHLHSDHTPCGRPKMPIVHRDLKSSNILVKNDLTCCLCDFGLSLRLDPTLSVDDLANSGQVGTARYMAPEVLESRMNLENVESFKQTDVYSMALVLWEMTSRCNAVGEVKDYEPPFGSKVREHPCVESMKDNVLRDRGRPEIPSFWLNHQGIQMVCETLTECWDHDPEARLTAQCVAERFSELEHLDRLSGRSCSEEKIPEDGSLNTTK
UniProt Q8IX30, residues 21-993: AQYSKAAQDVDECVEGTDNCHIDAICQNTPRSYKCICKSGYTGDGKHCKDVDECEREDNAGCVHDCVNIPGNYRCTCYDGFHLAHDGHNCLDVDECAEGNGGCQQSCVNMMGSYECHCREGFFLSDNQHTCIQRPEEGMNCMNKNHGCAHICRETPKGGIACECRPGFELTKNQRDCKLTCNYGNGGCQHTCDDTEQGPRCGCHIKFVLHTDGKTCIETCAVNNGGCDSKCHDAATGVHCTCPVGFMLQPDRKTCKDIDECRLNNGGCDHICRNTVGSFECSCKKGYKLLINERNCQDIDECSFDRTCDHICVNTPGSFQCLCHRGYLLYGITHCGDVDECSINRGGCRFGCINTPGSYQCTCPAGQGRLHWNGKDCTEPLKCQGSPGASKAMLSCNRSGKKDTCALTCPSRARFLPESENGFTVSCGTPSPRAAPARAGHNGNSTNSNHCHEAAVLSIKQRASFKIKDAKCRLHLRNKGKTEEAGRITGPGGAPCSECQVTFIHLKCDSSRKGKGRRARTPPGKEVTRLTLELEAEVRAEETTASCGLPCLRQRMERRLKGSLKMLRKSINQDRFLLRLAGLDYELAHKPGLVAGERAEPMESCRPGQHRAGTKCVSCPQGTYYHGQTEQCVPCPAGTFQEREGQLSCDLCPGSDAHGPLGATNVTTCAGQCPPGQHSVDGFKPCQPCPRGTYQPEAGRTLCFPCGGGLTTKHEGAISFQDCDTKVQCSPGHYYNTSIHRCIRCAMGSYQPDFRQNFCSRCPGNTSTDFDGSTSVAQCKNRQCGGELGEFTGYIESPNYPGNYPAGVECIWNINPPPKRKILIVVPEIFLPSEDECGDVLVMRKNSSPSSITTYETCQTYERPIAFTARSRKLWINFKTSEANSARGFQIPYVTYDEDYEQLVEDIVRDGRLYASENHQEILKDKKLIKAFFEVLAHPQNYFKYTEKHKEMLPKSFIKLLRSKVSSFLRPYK

Molecular target: type 2 TGFβ receptor (TGFβIIR) (human (endogenous in Bel7404)) (UniProt P37173)
Assay: co-IP; 1 mg extracted cell protein incubated with 2 µg DDDDK (FLAG) tag and TGFβIIR antibody overnight at 4 °C, then 12 h with Protein A/G agarose beads at 4 °C; washed three times with IP lysis buffer; SDS-PAGE and western blotting

- binding: binds
Substance: signal peptide-CUB-EGF-like domain-containing protein3 (SCUBE3), Flag-tagged (from UniProt Q8IX30-1 21-993)
